For 35 targets, NP40-soluble protein abundance results are on record in the supplement of paper PMC6411743.

Amino acid sequences for entries named in this document (tags omitted). A change or cut given only in a name is not applied to a line headed by its entry.
UniProt Q99567: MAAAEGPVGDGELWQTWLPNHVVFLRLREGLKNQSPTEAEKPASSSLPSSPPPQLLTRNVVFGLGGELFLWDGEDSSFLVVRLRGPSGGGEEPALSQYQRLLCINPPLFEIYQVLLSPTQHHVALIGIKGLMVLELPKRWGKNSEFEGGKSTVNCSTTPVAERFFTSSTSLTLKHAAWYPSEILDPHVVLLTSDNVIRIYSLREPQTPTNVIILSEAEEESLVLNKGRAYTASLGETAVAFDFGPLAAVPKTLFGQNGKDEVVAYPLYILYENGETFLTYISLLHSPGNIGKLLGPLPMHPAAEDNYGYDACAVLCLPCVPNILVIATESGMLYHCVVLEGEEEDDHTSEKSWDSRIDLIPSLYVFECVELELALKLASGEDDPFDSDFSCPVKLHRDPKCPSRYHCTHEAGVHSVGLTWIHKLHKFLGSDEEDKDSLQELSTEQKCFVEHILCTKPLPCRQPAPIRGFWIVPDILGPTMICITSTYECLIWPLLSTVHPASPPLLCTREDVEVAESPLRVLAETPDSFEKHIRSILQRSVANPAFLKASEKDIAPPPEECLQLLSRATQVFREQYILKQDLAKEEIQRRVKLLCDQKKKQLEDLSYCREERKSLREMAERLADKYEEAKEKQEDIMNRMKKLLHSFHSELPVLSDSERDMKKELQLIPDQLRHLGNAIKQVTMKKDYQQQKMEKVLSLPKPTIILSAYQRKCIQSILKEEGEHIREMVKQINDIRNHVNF
UniProt Q9BV86: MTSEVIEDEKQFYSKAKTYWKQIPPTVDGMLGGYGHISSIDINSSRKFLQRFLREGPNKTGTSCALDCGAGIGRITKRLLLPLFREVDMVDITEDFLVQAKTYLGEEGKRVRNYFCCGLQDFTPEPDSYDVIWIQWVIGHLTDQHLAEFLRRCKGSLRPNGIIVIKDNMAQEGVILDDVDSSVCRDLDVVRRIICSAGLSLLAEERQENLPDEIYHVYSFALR
UniProt Q99873, whole entry, looked up: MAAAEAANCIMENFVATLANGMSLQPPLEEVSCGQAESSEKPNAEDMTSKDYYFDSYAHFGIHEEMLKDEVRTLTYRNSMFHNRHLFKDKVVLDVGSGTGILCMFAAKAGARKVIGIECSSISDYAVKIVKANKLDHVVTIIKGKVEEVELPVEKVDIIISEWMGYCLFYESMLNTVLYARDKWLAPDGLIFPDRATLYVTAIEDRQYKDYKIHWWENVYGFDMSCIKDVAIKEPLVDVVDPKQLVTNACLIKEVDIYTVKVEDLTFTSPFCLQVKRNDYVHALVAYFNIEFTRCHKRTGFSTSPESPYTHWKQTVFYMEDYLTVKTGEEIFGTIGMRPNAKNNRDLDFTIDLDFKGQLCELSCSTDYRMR
UniProt Q9BV73: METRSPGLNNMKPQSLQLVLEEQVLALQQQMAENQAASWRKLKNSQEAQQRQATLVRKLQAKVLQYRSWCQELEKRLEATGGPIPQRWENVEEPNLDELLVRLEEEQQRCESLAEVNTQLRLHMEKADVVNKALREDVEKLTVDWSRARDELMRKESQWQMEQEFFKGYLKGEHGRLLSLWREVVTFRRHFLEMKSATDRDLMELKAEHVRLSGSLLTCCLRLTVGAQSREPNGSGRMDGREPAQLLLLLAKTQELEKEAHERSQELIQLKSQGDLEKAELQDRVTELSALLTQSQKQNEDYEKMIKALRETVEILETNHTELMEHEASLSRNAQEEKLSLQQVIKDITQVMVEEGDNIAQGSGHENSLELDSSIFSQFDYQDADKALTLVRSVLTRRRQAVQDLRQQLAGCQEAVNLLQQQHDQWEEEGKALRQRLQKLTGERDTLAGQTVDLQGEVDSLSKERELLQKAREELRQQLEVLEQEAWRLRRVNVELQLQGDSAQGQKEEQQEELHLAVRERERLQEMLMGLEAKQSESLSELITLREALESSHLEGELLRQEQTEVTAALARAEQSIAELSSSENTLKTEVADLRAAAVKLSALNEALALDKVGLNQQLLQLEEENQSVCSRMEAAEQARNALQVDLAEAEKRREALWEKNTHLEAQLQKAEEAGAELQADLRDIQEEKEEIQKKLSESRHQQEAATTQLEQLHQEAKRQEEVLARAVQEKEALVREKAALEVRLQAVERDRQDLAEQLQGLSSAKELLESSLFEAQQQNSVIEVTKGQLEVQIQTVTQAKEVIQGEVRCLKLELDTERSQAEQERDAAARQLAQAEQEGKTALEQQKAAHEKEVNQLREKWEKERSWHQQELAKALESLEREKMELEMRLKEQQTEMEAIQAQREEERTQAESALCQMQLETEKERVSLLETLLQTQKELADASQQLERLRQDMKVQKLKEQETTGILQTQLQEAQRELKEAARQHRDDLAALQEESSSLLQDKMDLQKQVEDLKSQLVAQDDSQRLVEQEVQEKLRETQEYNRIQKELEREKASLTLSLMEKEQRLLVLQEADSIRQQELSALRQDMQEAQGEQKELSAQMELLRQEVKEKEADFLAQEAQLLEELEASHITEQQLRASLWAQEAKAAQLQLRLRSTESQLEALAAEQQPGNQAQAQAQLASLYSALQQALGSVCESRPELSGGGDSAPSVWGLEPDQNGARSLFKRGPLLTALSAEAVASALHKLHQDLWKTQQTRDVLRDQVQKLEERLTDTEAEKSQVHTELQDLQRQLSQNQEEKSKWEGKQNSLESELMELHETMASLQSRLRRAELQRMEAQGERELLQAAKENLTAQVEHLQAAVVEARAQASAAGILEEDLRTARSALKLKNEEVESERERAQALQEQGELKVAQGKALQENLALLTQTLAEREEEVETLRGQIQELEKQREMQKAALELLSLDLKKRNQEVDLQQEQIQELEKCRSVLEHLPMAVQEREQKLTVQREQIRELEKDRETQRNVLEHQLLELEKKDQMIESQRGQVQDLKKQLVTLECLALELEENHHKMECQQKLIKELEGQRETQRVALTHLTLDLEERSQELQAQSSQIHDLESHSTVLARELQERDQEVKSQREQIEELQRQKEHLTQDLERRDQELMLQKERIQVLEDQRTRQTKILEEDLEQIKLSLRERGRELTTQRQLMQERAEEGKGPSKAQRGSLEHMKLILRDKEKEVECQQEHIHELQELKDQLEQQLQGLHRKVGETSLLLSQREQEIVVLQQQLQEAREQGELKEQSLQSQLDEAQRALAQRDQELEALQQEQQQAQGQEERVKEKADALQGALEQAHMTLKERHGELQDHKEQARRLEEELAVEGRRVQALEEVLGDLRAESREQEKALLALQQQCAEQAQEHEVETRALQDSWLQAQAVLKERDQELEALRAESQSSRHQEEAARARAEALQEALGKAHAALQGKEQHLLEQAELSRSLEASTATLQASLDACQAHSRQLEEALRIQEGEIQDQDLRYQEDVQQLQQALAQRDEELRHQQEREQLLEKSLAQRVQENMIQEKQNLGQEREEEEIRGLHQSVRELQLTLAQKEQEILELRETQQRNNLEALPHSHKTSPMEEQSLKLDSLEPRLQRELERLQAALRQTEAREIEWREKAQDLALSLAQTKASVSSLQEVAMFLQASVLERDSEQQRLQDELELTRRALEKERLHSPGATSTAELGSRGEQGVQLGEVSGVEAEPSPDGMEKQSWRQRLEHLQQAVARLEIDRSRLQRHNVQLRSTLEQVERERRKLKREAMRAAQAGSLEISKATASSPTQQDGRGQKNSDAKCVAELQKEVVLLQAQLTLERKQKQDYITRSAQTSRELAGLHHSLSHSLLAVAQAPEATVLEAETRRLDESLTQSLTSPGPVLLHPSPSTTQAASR
UniProt Q9BRK5: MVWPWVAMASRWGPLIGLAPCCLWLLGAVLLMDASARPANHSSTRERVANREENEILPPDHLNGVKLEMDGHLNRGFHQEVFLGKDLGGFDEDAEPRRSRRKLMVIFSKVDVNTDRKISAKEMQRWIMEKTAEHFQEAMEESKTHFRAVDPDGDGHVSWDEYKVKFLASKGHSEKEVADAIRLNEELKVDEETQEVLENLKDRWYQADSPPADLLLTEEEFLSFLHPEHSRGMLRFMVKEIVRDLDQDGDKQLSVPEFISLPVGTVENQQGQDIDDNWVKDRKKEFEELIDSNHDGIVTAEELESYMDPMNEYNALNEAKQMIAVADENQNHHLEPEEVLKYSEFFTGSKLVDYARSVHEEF
UniProt Q9BQ95: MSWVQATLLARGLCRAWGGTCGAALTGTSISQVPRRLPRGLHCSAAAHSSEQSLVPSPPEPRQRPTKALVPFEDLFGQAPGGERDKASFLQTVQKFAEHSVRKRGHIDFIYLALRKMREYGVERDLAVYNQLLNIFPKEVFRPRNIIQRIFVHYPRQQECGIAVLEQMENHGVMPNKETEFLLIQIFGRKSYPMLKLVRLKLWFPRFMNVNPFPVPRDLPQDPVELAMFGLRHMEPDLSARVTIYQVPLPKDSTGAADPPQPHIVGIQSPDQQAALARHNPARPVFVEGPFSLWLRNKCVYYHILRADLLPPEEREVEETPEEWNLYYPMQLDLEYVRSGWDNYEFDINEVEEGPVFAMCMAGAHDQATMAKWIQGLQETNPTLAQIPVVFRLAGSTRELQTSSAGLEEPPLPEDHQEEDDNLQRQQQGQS
UniProt Q9BWT6: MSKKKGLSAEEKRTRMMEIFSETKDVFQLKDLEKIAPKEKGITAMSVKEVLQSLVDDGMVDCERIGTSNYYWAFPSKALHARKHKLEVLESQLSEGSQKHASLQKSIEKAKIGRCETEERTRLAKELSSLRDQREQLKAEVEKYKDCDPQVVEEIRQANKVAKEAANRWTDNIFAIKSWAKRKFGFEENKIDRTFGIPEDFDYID
UniProt Q99622: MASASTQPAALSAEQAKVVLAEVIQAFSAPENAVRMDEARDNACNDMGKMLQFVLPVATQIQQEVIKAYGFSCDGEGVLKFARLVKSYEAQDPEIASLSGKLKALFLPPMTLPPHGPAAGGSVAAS
UniProt Q9BVA0, whole entry: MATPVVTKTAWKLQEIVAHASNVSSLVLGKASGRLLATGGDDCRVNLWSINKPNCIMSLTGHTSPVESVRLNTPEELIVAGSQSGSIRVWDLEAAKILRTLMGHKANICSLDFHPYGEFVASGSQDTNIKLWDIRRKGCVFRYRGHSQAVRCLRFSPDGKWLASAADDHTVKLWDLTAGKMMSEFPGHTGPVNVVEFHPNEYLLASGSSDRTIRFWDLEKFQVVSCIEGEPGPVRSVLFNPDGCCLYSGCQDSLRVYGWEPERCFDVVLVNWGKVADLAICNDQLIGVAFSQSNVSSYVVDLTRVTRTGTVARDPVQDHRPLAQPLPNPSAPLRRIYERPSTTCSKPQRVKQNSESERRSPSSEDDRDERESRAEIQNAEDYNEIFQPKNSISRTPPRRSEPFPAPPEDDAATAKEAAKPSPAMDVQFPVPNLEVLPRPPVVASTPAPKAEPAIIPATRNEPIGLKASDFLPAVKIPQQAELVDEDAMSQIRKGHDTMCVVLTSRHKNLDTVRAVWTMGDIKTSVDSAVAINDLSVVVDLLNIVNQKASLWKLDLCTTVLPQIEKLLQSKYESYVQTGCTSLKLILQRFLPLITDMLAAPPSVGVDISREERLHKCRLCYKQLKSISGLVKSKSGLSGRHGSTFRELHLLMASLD
UniProt Q9BRJ6: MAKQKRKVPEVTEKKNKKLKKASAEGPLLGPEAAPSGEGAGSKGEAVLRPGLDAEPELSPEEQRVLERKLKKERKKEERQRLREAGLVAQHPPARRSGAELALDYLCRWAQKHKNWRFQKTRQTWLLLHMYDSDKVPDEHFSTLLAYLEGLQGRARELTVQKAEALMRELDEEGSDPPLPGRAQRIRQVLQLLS
UniProt Q9BR76, whole entry: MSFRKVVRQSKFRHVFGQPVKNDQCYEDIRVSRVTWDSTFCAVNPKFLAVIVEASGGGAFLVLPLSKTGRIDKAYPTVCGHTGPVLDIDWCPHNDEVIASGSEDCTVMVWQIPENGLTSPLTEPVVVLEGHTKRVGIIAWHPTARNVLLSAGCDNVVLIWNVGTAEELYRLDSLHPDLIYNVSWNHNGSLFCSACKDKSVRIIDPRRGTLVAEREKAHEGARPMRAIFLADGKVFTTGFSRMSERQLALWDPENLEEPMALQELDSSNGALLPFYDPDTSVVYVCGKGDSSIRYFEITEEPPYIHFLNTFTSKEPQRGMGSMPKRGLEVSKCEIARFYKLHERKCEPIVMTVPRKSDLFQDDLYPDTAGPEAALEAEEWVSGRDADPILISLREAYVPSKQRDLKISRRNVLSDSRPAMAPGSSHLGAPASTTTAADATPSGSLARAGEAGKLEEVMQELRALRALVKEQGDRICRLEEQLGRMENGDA
UniProt Q9BQP7: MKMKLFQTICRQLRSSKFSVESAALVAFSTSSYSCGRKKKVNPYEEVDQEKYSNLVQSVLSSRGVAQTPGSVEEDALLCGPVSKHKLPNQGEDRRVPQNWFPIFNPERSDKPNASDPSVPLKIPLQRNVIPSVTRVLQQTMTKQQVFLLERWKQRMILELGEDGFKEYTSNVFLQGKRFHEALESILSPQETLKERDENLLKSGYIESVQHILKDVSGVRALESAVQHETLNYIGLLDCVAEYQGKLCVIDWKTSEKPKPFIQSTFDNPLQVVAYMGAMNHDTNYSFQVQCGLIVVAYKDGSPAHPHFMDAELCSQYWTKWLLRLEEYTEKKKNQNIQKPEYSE

± gives the standard deviation of the averaged measurements. Only a part is listed here, and it is no random draw.

Compound in the first assay: Nc1ncnc2c1ncn2[C@@H]1O[C@H](COP(=O)(O)OP(=O)(O)OP(=O)(O)O)[C@@H](O)[C@H]1O [adenosine triphosphate]
Kind of assay: NP40-soluble protein abundance relative to vehicle (solubility fold change) (ratio); higher = more soluble protein in presence of ATP. Conditions: concentration: 6mM. In short, it runs like this:
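Each value is a fold change relative to the detergent-processed vehicle, calculated per replicate from vsn-normalised intensities. Jurkat crude lysate received eight concentrations (0.1 to 10 mM) for 10 min at room temperature and 3 min at 37 °C, then was solubilised in 0.8% NP40 with benzonase (60 min, 4 °C). The ultracentrifuged supernatant was TMT-labelled and run by LC-MS/MS in three independent experiments.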
On to CPNE1 (UniProt Q99829), for which the NP40-soluble protein abundance amounted to 0.924 ± 0.11.
The same measure, in the same setting: to UniProt Q9BU61 belongs 0.894 ± 0.079; to UniProt Q9BRR6 and related entries, 1.13 ± 0.12.
Still for that read-out and setting: to POP1 (UniProt Q99575) belongs 1.06 ± 0.098; to UniProt Q99719 and related entries, 1.04 ± 0.025.
For the target “UniProt Q99996-3|Q99996-5|A0A0A0MRF6|Q99996 and related entries”, the NP40-soluble protein abundance stood at 1.02 ± 0.18.
For CDC5L (UniProt Q99459), the NP40-soluble protein abundance was determined as 1.13 ± 0.062.
On the same count and under the same terms, to NUP88 (UniProt Q99567) belongs 1.04 ± 0.014; to UniProt Q9BQ52 and related entries, 0.958 ± 0.038.
Still for that read-out and setting: to UniProt Q9BV86 belongs 0.941 ± 0.12; to TXN2 (UniProt Q99757), 0.785 ± 0.29; to MRI1 (UniProt Q9BV20), 0.964 ± 0.059.
The same measure, in the same setting: to UniProt Q99447 and related entries belongs 0.955 ± 0.1.
Regarding UniProt Q99873-3|Q99873-4, the NP40-soluble protein abundance turned out to be 0.945 ± 0.2.
Still for that read-out and setting: to UniProt Q9BYV8 belongs 1.01 ± 0.048; to UniProt Q9BV73 and related entries, 0.961 ± 0.037; to UniProt Q96TA2 and related entries, 1.06 ± 0.016.
On the same count and under the same terms, to UniProt Q9BWU1 belongs 0.971 ± 0.12.
Still for that read-out and setting: to SDF4 (UniProt Q9BRK5) belongs 1.02 ± 0.072; to RAB11FIP5 (UniProt Q9BXF6), 1.2 ± 0.13.
UniProt Q9BXS6 and related entries: the NP40-soluble protein abundance turned out to be 1.04 ± 0.044.
Consider ECSIT (UniProt Q9BQ95), for which the NP40-soluble protein abundance was found to be 1 ± 0.033.
Still for that read-out and setting: to MND1 (UniProt Q9BWT6) belongs 0.939 ± 0.043; to CPPED1 (UniProt Q9BRF8), 0.926 ± 0.1; to UniProt Q99622 and related entries, 0.917 ± 0.18.
The same measure, in the same setting: to ULBP2 (UniProt Q9BZM5) belongs 1.01 ± 0.027; to KATNB1 (UniProt Q9BVA0), 0.946 ± 0.018; to C7orf50 (UniProt Q9BRJ6), 1.092 ± 0.0098.
As for CORO1B (UniProt Q9BR76), the NP40-soluble protein abundance was determined as 1.11 ± 0.081.
Still for that read-out and setting: to PI4K2A (UniProt Q9BTU6) belongs 0.936 ± 0.1; to UniProt Q9BSC4 and related entries, 1.29 ± 0.096.
On the same count and under the same terms, to ITPA (UniProt Q9BY32) belongs 1.04 ± 0.073.
The same measure, in the same setting: to RNF2 (UniProt Q99496) belongs 1.19 ± 0.016.
For the target SF3B5 (UniProt Q9BWJ5), the NP40-soluble protein abundance came out at 1.17 ± 0.22.
The same measure, in the same setting: to UniProt Q9BQP7 belongs 1.02 ± 0.03.

Staying with this assay, now noted: concentration: 8mM.
As to CPNE1 (UniProt Q99829), the NP40-soluble protein abundance worked out at 0.91 ± 0.044.
On the same count and under the same terms, to UniProt Q9BU61 belongs 0.966 ± 0.035; to UniProt Q9BRR6 and related entries, 1.06 ± 0.19; to POP1 (UniProt Q99575), 1.11 ± 0.05.
The same measure, in the same setting: to UniProt Q99719 and related entries belongs 1.04 ± 0.047; to “UniProt Q99996-3|Q99996-5|A0A0A0MRF6|Q99996 and related entries”, 0.999 ± 0.12.
On the same count and under the same terms, to CDC5L (UniProt Q99459) belongs 1.12 ± 0.058; to NUP88 (UniProt Q99567), 1.07 ± 0.023; to UniProt Q9BQ52 and related entries, 0.9823 ± 0.0036.
As for UniProt Q9BV86, the NP40-soluble protein abundance came out at 0.965 ± 0.092.
The same measure, in the same setting: to TXN2 (UniProt Q99757) belongs 1.02 ± 0.12; to MRI1 (UniProt Q9BV20), 0.956 ± 0.029; to UniProt Q99447 and related entries, 1.01 ± 0.079.
Same read-out and setting: to UniProt Q99873-3|Q99873-4 belongs 1.11 ± 0.11; to UniProt Q9BYV8, 1 ± 0.035; to UniProt Q9BV73 and related entries, 0.929 ± 0.022.
Same read-out and setting: to UniProt Q96TA2 and related entries belongs 1.098 ± 0.0099.
As for UniProt Q9BWU1, the NP40-soluble protein abundance is 0.946 ± 0.089.
Same read-out and setting: to SDF4 (UniProt Q9BRK5) belongs 0.956 ± 0.02; to RAB11FIP5 (UniProt Q9BXF6), 1.22 ± 0.16.
On the same count and under the same terms, to UniProt Q9BXS6 and related entries belongs 1.05 ± 0.049; to ECSIT (UniProt Q9BQ95), 0.983 ± 0.026; to MND1 (UniProt Q9BWT6), 0.921 ± 0.016.
Same read-out and setting: to CPPED1 (UniProt Q9BRF8) belongs 0.959 ± 0.076; to UniProt Q99622 and related entries, 0.881 ± 0.08; to ULBP2 (UniProt Q9BZM5), 0.966 ± 0.087.
In the case of KATNB1 (UniProt Q9BVA0), the NP40-soluble protein abundance amounted to 0.9689 ± 0.0088.
The same measure, in the same setting: to C7orf50 (UniProt Q9BRJ6) belongs 1.08 ± 0.068.
Same read-out and setting: to CORO1B (UniProt Q9BR76) belongs 1.06 ± 0.1; to PI4K2A (UniProt Q9BTU6), 0.986 ± 0.039; to UniProt Q9BSC4 and related entries, 1.28 ± 0.084.
On the same count and under the same terms, to ITPA (UniProt Q9BY32) belongs 0.975 ± 0.059; to RNF2 (UniProt Q99496), 1.22 ± 0.045; to SF3B5 (UniProt Q9BWJ5), 1.1 ± 0.08.
Take UniProt Q9BQP7: the NP40-soluble protein abundance worked out at 0.967 ± 0.01.

Staying with this assay, now noted: concentration: 10mM.
CPNE1 (UniProt Q99829): the NP40-soluble protein abundance was found to be 0.947 ± 0.065.
Turning to UniProt Q9BU61, the NP40-soluble protein abundance stood at 0.979 ± 0.034.
On to UniProt Q9BRR6 and related entries, for which the NP40-soluble protein abundance stood at 1.05 ± 0.18.
The same measure, in the same setting: to POP1 (UniProt Q99575) belongs 1.11 ± 0.067.
Same read-out and setting: to UniProt Q99719 and related entries belongs 1.01 ± 0.014; to “UniProt Q99996-3|Q99996-5|A0A0A0MRF6|Q99996 and related entries”, 1.01 ± 0.09; to CDC5L (UniProt Q99459), 1.16 ± 0.031.
On the same count and under the same terms, to NUP88 (UniProt Q99567) belongs 1.086 ± 0.0086; to UniProt Q9BQ52 and related entries, 0.994 ± 0.016.
For the target UniProt Q9BV86, the NP40-soluble protein abundance is 0.923 ± 0.045.
The same measure, in the same setting: to TXN2 (UniProt Q99757) belongs 0.913 ± 0.092.
As to MRI1 (UniProt Q9BV20), the NP40-soluble protein abundance was 0.967 ± 0.06.
Same read-out and setting: to UniProt Q99447 and related entries belongs 0.983 ± 0.043.
UniProt Q99873-3|Q99873-4: the NP40-soluble protein abundance was 1.02 ± 0.076.
Still for that read-out and setting: to UniProt Q9BYV8 belongs 0.992 ± 0.021; to UniProt Q9BV73 and related entries, 0.944 ± 0.024.
For UniProt Q96TA2 and related entries, the NP40-soluble protein abundance turned out to be 1.08 ± 0.04.
Same read-out and setting: to UniProt Q9BWU1 belongs 0.958 ± 0.097; to SDF4 (UniProt Q9BRK5), 0.935 ± 0.052; to RAB11FIP5 (UniProt Q9BXF6), 1.18 ± 0.16.
Consider UniProt Q9BXS6 and related entries, for which the NP40-soluble protein abundance was found to be 1.04 ± 0.032.
The same measure, in the same setting: to ECSIT (UniProt Q9BQ95) belongs 0.984 ± 0.031.
For the target MND1 (UniProt Q9BWT6), the NP40-soluble protein abundance came to 0.87 ± 0.091.
Same read-out and setting: to CPPED1 (UniProt Q9BRF8) belongs 0.945 ± 0.059; to UniProt Q99622 and related entries, 0.791 ± 0.18.
Still for that read-out and setting: to ULBP2 (UniProt Q9BZM5) belongs 0.951 ± 0.062.
For the target KATNB1 (UniProt Q9BVA0), the NP40-soluble protein abundance is 0.977 ± 0.017.
Take C7orf50 (UniProt Q9BRJ6): the NP40-soluble protein abundance was 1.25 ± 0.13.
The same measure, in the same setting: to CORO1B (UniProt Q9BR76) belongs 1.09 ± 0.097; to PI4K2A (UniProt Q9BTU6), 0.975 ± 0.06; to UniProt Q9BSC4 and related entries, 1.32 ± 0.093.
The same measure, in the same setting: to ITPA (UniProt Q9BY32) belongs 0.983 ± 0.069; to RNF2 (UniProt Q99496), 1.32 ± 0.055.
The same measure, in the same setting: to SF3B5 (UniProt Q9BWJ5) belongs 1.08 ± 0.14.
In the case of UniProt Q9BQP7, the NP40-soluble protein abundance stood at 0.96 ± 0.014.
